# From PubChem BioAssay AID1439 (NMMLSC, 2008)
# Sequences of proteins named here, by UniProt entry; tags and fusion partners are left off.
# UniProt P09471, whole entry, looked up: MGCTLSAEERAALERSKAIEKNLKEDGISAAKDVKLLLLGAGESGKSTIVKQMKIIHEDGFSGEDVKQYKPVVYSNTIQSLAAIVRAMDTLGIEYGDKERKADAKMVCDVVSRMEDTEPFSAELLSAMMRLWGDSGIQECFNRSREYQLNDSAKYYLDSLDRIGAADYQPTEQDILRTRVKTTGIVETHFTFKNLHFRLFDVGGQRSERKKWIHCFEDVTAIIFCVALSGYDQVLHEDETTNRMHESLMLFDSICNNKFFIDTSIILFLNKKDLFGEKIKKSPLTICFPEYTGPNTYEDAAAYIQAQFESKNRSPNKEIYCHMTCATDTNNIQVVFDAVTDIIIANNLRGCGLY
# In all, about 220,000 compounds went through this assay and about 770 (0.35%) were called active. The shares of active, inactive and inconclusive entries below differ from those in the screen. No stated cut-off is given here; in the data, active means binding response below about 49% or above about 150%; inconclusive means no clear call, values can overlap the other calls; inactive means in between.
# Target: Guanine nucleotide-binding protein G(o) subunit alpha (Homo sapiens) (UniProt P09471)
# Test: RGS7-Galphao binding modulators, primary screen, biochemical, multiplexed bead flow cytometry (AID 1439);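 further: fluorescent Galphao held in activated GDP-AlF4 state binding bead-coupled RGS7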
# Details: at 10 µM, actives lie on both sides
row,Structure (SMILES),binding response (% of control)
1,CCOC(=O)C1(Cc2ccc(OC)cc2)CCN(C(=O)CCc2cnccn2)CC1,inconclusive: 224%
2,O=C(CC1C(=O)NCCN1C(=O)Nc1ccc(C(F)(F)F)cc1)Nc1ccc(F)cc1 (stereo not given),inconclusive: 14.3%
3,CCOc1cc(N2CCOCC2)c(OCC)cc1NC(=O)c1ccc(S(=O)(=O)N(C)C)cc1,inconclusive: 81%
4,O=c1c2cc3c(nc2[nH]c(=S)n1-c1ccccc1)CCCC3,inconclusive: 101%
5,COc1ccc(NS(=O)(=O)c2cc(NC(=O)c3sccc3C)ccc2N2CCOCC2)cc1,inconclusive: 106%
6,CCOC(=O)c1c(NC(=O)CSC(=S)N2CCOCC2)sc(C)c1C,inactive: 99.2%
7,O=C(Nc1ccc(N2CCOCC2)cc1)C1CC(=O)N(c2ccc(F)cc2)C1 (stereo not given),inactive: 108%
8,Cc1cc2nnc(SCC(=O)NCC3CCCO3)n2c2ccccc12 (stereo not given),inactive: 100%
9,COc1ccc2c(c1OC)C(=O)OC2Nc1nc(-c2cc3cc(Br)ccc3oc2=O)cs1 (stereo not given),inconclusive: 104%
10,Cc1c(NC(=S)N2CCN(c3ccc(F)cc3)CC2)c(=O)n(-c2ccccc2)n1C,inconclusive: 138%
11,O=[N+]([O-])c1ccccc1NCc1c(O)ccc2ccccc12,inconclusive: 115%
12,Cc1ccc(S(=O)(=O)c2ccc(Oc3cccc(C)c3)cc2)cc1,inactive: 103%
13,O=[N+]([O-])c1cccc(C(O)C23CN4CN(CN(C4)C2)C3)c1 (stereo not given),inconclusive: 131%
14,Cc1cccc(-c2nc3cc(NC(=O)C4CCCO4)ccc3o2)c1 (stereo not given),inactive: 107%
15,Cc1cc(C(F)(F)F)nc2c(Cl)c(C(C)(C)C)nn12,inconclusive: 86.3%
16,COc1ccc(C(=O)/C(=C\N(C)C)n2nc(C)cc2C)cc1,inconclusive: 100%
17,COc1ccc(Cl)cc1S(=O)(=O)N1CCC(O)(c2ccc(Cl)cc2)CC1,inconclusive: -1.58%
18,Cc1ccc(OCCOCCn2cnc3ccccc3c2=O)cc1C,inconclusive: 68.8%
19,O=C(Nc1ccc(OC(F)(F)F)cc1)c1ccc(S(=O)(=O)N2CCOCC2)o1,inconclusive: 64.2%
20,O=C(NC12CC3CC(CC(C3)C1)C2)c1ccc(N2CCNCC2)c([N+](=O)[O-])c1,inconclusive: -89.4%
21,CSc1ccc(/C=C/C(=O)OCC(=O)N(C)CCC#N)cc1,inconclusive: 101%
22,O=C(N/N=C/c1ccc([N+](=O)[O-])cc1)c1cccc2cc[nH]c12,inconclusive: 97.9%
23,CSc1nsc(SC)c1C(=O)NC(=O)Nc1cccnc1,inconclusive: 12.7%

row,Structure (SMILES),binding response (% of control)
1,CC(C)c1nnc(SCC(=O)N2CCN(C(=O)c3ccco3)CC2)n1N,inactive: 94%
2,Cc1cc(Br)c(NC(=O)c2c(-c3c(Cl)cccc3Cl)noc2C)c(Br)c1,inconclusive: 76.8%
3,N#C/C(=N\Nc1ccccc1F)c1nc(-c2ccccc2)cs1,inactive: 102%
4,Nc1cc2nc3ccccc3oc-2cc1=O,inconclusive: 131%
5,CC(=O)Nc1ccc(C(=O)NCC(=O)OCc2ccccc2F)cc1,inconclusive: 112%
6,CN(Cc1cn[nH]c1-c1ccc(-c2ccccc2)cc1)CC1CCOCC1,inconclusive: 131%
7,CCCCN1C(=O)C(=O)NC[C@@H]1C(C)CC (stereo not given in full),inconclusive: 100%
8,C=CCN=C1S/C(=C/c2cccc([N+](=O)[O-])c2)C(=O)N1CC=C,inconclusive: 93.7%
9,CCN(CC)CCn1c(C)nc2ccccc21,inconclusive: 109%
10,Cc1ccc(C)c(N2CCN(C(=O)Cc3c(C(=O)O)[nH]c4ccc(Cl)cc34)CC2)c1,inconclusive: 77.8%
11,CN(C)CCN(C(=O)c1ccc(S(=O)(=O)N(C)c2ccccc2)cc1)c1nc2cc3c(cc2s1)OCCO3,inconclusive: 71.7%
12,O=C(O)/C=C/C(=O)Nc1ccc(N2CCOCC2)nc1N1CCOCC1,inconclusive: 139%
13,COc1ccccc1Oc1nc2ccccn2c(=O)c1/C=C(\C#N)C(=O)Nc1c(C)n(C)n(-c2ccccc2)c1=O,inconclusive: -20.5%
14,Cc1c(C(=O)O)cccc1-n1c(C)cc(/C=N/Nc2ccc([N+](=O)[O-])cn2)c1C,inconclusive: 128%
15,O=C(COc1cccnc1[N+](=O)[O-])NCc1cccs1,inactive: 112%
16,CCN(CC)CCCN=C(N)N,inconclusive: 39.1%
17,C=CCNS(=O)(=O)c1cccc(C(C)=O)c1,inactive: 103%
18,CC(C)N(C(C)C)S(=O)(=O)c1ccc(NN)nc1,inconclusive: 125%
19,O=C(Nc1ccc(F)cc1)N1CCC(c2nc3c(nnn3Cc3ccccc3Cl)c(=O)[nH]2)CC1,inconclusive: 111%
20,CCCCCc1c(O)nc(SCCN(C)C)[nH]c1=O,inconclusive: 96.3%
21,COCCCN1C(=O)/C(=C/c2ccc(CNS(=O)(=O)c3ccccc3)o2)C(C(=O)OC)=C1C,inconclusive: 109%
22,CCC(=O)NNC(=O)c1cc(COc2cc(Cl)cc(Cl)c2)on1,inconclusive: 88.3%
23,O=c1c2ccccc2c(C=Nc2ccc(O)cc2)c(O)n1Cc1ccccc1,inconclusive: 88.5%

row,Structure (SMILES),binding response (% of control)
1,C[n+]1ccc(/C=C/c2cccs2)cc1,inconclusive: -198%
2,NC(=O)c1sc2nc3c(c(-c4ccco4)c2c1N)CCCC3,inconclusive: 97.9%
3,CCOC(=O)c1c(NC(=S)Nc2ccc(OCC)cc2)sc2c1CCN(C)C2,inconclusive: 198%
4,CCn1cnc2c1c(=O)n(CC(=O)Nc1ccc(C(N)=O)cc1)c(=O)n2Cc1ccccc1,inconclusive: 85.3%
5,CCOC(=O)c1c(C)[nH]c(C2=NNC(=NC3CC3)SC2)c1C,inactive: 104%
6,COC(=O)c1c(-c2ccccc2Cl)noc1-c1cnc(N)nc1C(F)(F)F,inconclusive: 100%
7,CC1(C)C2CCC(C2)C1C/C=N/NC(N)=S (stereo not given),inconclusive: 121%
8,CCOC(=O)CC(c1ccc([N+](=O)[O-])cc1)n1c(C)ccc1C (stereo not given),inconclusive: 107%
9,CCOC(=O)C1CC(C)=C(C)CC1C(=O)O (stereo not given),inconclusive: 76.5%
10,COCCNCc1ccc(C(C)C)cc1,inconclusive: 118%
11,CCOc1cc(-c2nnc(-c3ccco3)o2)cc(OCC)c1OCC,active: 156% [activator]
12,O=C(Nc1ccc([N+](=O)[O-])cc1)N1CCCCC1,inconclusive: 107%
13,CN(C)c1ccc(C(=O)NCc2ccc3c(c2)CCO3)cc1,inconclusive: 76.4%
14,CSCC[C@H](NC(=O)Nc1ccc(C)cc1)C(=O)O,inactive: 103%
15,Cc1c(Cl)cccc1NC(=S)Nc1ccc2[nH]c(=O)[nH]c2c1,inconclusive: 103%
16,O=S(=O)(c1cccs1)N1CCN(c2ccc(O)cc2)CC1,inconclusive: -160%
17,Cc1nnc(NC(=O)c2ccccc2-c2ccccc2C(=O)O)s1,inconclusive: 126%
18,O=C(NCCN1CCOCC1)c1cccn2c(=O)c3c4c(sc3nc12)CCCC4,inconclusive: 104%
19,O=C(CC1SC(=O)N(Cc2ccccc2Cl)C1=O)Nc1nccs1 (stereo not given),inconclusive: 101%
20,O=C(CCN1C(=O)C2C3C=CC(C4CC34)C2C1=O)Oc1ccc(Br)cc1 (stereo not given),inconclusive: 88.5%
21,Cc1cccc(Cl)c1NC(=O)N1CCCN(c2ncccc2[N+](=O)[O-])CC1,inconclusive: 105%
22,Cc1cc(C)nc(NS(=O)(=O)c2ccc(NC(=O)CSc3nc(-c4ccccc4)c(C#N)c(=O)[nH]3)cc2)n1,inactive: 103%
23,CCOc1ccc(NC(=O)N(C2CCCC2)C2CCN(C(C)=O)CC2)cc1,inactive: 101%

row,Structure (SMILES),binding response (% of control)
1,COc1ccc(C(=O)COC(=O)CNC(=O)c2ccc(OC)cc2)cc1,inconclusive: 92.6%
2,COC(C[C@H](O)[C@@H](C)[C@@H](O)COCc1ccccc1)OC,inconclusive: 89.9%
3,CCC(NC(=O)CCc1ccccc1)c1ccccc1 (stereo not given),inconclusive: 95.4%
4,COc1ccccc1OCc1ccc(C(=O)NC(C)(C)C)o1,inactive: 97.9%
5,C=CCC1(Cl)C(=O)C(Cl)=C(N2CCN(C)CC2)C1(OC)OC (stereo not given),inconclusive: 334%
6,CN(C)/C=N/N(C)c1ncccc1[N+](=O)[O-],inconclusive: 99.6%
7,CSc1ccc(/C=C/C(=O)N2CCCN(C)CC2)cc1,inconclusive: 102%
8,C/C=C/C(=O)Nc1cccc(C2=NOC3(C2)C[C@@H](C(N)=O)N(C(=O)c2cc([N+](=O)[O-])cc([N+](=O)[O-])c2)C3)c1 (stereo not given in full),inconclusive: 107%
9,CC(OC(=O)/C=C/c1cccs1)C(=O)Nc1ccc(S(N)(=O)=O)cc1 (stereo not given),inconclusive: 110%
10,N#CCCN/N=C(/Cc1nc2ccccc2[nH]1)c1cccc(Cl)c1,active: 198% [activator]
11,CCOC(=O)c1cc(C)[nH]c(=O)c1C#N,inconclusive: 85.5%
12,Cc1ccc(CNc2cnn(C34CC5CC(CC(C5)C3)C4)c(=O)c2Cl)cc1,active: 7.39%
13,OCCC1CN(Cc2cccc3c2OCO3)CCN1C1CCCC1 (stereo not given),inactive: 105%
14,CCn1c(NCCCO)nc2c(c1=O)C(C)(CC)Cc1ccccc1-2 (stereo not given),inconclusive: 378%
15,COc1ccc(-c2ccc(SCC(=O)Nc3cccc(C(C)=O)c3)nn2)cc1OC,inactive: 106%
16,COC(=O)c1cc(NS(=O)(=O)c2ccc(F)cc2)ccc1N1CCOCC1,inconclusive: 78.4%
17,Cc1c(N)cccc1-n1cnnn1,inconclusive: 92.9%
18,O=C(COC(=O)C1CCCCC1)Nc1cc([N+](=O)[O-])ccc1F,inconclusive: 99.3%
19,COc1ccc(/C=C2/CCCC(C(=O)C(F)(F)F)=C2O)cc1OC,inconclusive: 122%
20,O=C(CCc1ccccc1)NCC1OCCc2ccccc21 (stereo not given),inconclusive: 103%
21,CC1(C)C2CCC1(CS(=O)(=O)N1CCC(C(=O)O)CC1)C(=O)C2 (stereo not given),inconclusive: 87%

# 4 compounds out of the list, ordered by SMILES length, rising:
row,Structure (SMILES),binding response (% of control)
1,CC(C)c1nnc(SCC(=O)N2CCN(C(=O)c3ccco3)CC2)n1N,inactive: 94%
2,COC(C[C@H](O)[C@@H](C)[C@@H](O)COCc1ccccc1)OC,inconclusive: 89.9%
2,Cc1cc(Br)c(NC(=O)c2c(-c3c(Cl)cccc3Cl)noc2C)c(Br)c1,inconclusive: 76.8%
10,Cc1ccc(C)c(N2CCN(C(=O)Cc3c(C(=O)O)[nH]c4ccc(Cl)cc34)CC2)c1,inconclusive: 77.8%

# Copied from the list:
# binding response (% of control) with N#CCCN/N=C(/Cc1nc2ccccc2[nH]1)c1cccc(Cl)c1 is entered as active: 198% [activator]
# binding response (% of control) with COc1ccc(C(=O)COC(=O)CNC(=O)c2ccc(OC)cc2)cc1 is entered as inconclusive: 92.6%
